Experimental data reported in patent US12729225B2, “Non-canonical SWI/SNF complex and uses thereof” (Dana-Farber Cancer Institute, Inc., priority 2018, dated 2026).

Test system: mSWI/SNF complexes
Assay: mSWI/SNF complex purification with HA-tagged baits and mass spectrometry (peptide counts)
Set-up: species or system human
Settings: 293_HA-BRD7: HA-BRD7 bait purification; for Total: total peptide count per co-purified protein; for Unique: unique peptide count per co-purified protein

Molecule	Total	Unique
PYCR2 (protein, UniProt Q96C36 2-320, looked up) Pyrroline-5-carboxylate …: SVGFIGAGQLAYALARGFTAAGILSAHKIIASSPEMNLPTVSALRKMGVNLTRSNKETVKHSDVLFLAVKPHIIPFILDEIGADVQARHIVVSCAAGVTISSVEKKLMAFQPAPKVIRCMTNTPVVVQEGATVYATGTHALVEDGQLLEQLMSSVGFCTEVEEDLIDAVTGLSGSGPAYAFMALDALADGGVKMGLPRRLAIQLGAQALLGAAKMLLDSEQHPCQLKDNVCSPGGATIHALHFLESGGFRSLLINAVEASCIRTRELQSMADQEKISPAALKKTLLDRVKLESPTVSTLTPSSPGKLLTRSLALGGKKD	6	6
SERPINH1 (protein, UniProt P50454 19-418, looked up) Serpin H1: AEVKKPAAAAAPGTAEKLSPKAATLAERSAGLAFSLYQAMAKDQAVENILVSPVVVASSLGLVSLGGKATTASQAKAVLSAEQLRDEEVHAGLGELLRSLSNSTARNVTWKLGSRLYGPSSVSFADDFVRSSKQHYNCEHSKINFRDKRSALQSINEWAAQTTDGKLPEVTKDVERTDGALLVNAMFFKPHWDEKFHHKMVDNRGFMVTRSYTVGVMMMHRTGLYNYYDDEKEKLQIVEMPLAHKLSSLIILMPHHVEPLERLEKLLTKEQLKIWMGKMQKKAVAISLPKGVVEVTHDLQKHLAGLGLTEAIDKNKADLSRMSGKKDLYLASVFHATAFELDTDGNPFDQDIYGREELRSPKLFYADHPFIFLVRDTQSGSLLFIGRLVRPKGDKMRDEL	6	6
VDAC2 (protein, UniProt P45880 2-294, looked up) Non-selective voltage-gated …: ATHGQTCARPMCIPPSYADLGKAARDIFNKGFGFGLVKLDVKTKSCSGVEFSTSGSSNTDTGKVTGTLETKYKWCEYGLTFTEKWNTDNTLGTEIAIEDQICQGLKLTFDTTFSPNTGKKSGKIKSSYKRECINLGCDVDFDFAGPAIHGSAVFGYEGWLAGYQMTFDSAKSKLTRNNFAVGYRTGDFQLHTNVNDGTEFGGSIYQKVCEDLDTSVNLAWTSGTNCTRFGIAAKYQLDPTASISAKVNNSSLIGVGYTQTLRPGVKLTLSALVDGKSINAGGHKVGLALELEA	6	6
TCOF1 (protein, UniProt Q13428 1-1488, looked up) Treacle protein: MAEARKRRELLPLIYHHLLRAGYVRAAREVKEQSGQKCFLAQPVTLLDIYTHWQQTSELGRKRKAEEDAALQAKKTRVSDPISTSESSEEEEEAEAETAKATPRLASTNSSVLGADLPSSMKEKAKAETEKAGKTGNSMPHPATGKTVANLLSGKSPRKSAEPSANTTLVSETEEEGSVPAFGAAAKPGMVSAGQADSSSEDTSSSSDETDVEGKPSVKPAQVKASSVSTKESPARKAAPAPGKVGDVTPQVKGGALPPAKRAKKPEEESESSEEGSESEEEAPAGTRSQVKASEKILQVRAASAPAKGTPGKGATPAPPGKAGAVASQTKAGKPEEDSESSSEESSDSEEETPAAKALLQAKASGKTSQVGAASAPAKESPRKGAAPAPPGKTGPAVAKAQAGKREEDSQSSSEESDSEEEAPAQAKPSGKAPQVRAASAPAKESPRKGAAPAPPRKTGPAAAQVQVGKQEEDSRSSSEESDSDREALAAMNAAQVKPLGKSPQVKPASTMGMGPLGKGAGPVPPGKVGPATPSAQVGKWEEDSESSSEESSDSSDGEVPTAVAPAQEKSLGNILQAKPTSSPAKGPPQKAGPVAVQVKAEKPMDNSESSEESSDSADSEEAPAAMTAAQAKPALKIPQTKACPKKTNTTASAKVAPVRVGTQAPRKAGTATSPAGSSPAVAGGTQRPAEDSSSSEESDSEEEKTGLAVTVGQAKSVGKGLQVKAASVPVKGSLGQGTAPVLPGKTGPTVTQVKAEKQEDSESSEEESDSEEAAASPAQVKTSVKKTQAKANPAAARAPSAKGTISAPGKVVTAAAQAKQRSPSKVKPPVRNPQNSTVLARGPASVPSVGKAVATAAQAQTGPEEDSGSSEEESDSEEEAETLAQVKPSGKTHQIRAALAPAKESPRKGAAPTPPGKTGPSAAQAGKQDDSGSSSEESDSDGEAPAAVTSAQVIKPPLIFVDPNRSPAGPAATPAQAQAASTPRKARASESTARSSSSESEDEDVIPATQCLTPGIRTNVVTMPTAHPRIAPKASMAGASSSKESSRISDGKKQEGPATQVSKKNPASLPLTQAALKVLAQKASEAQPPVARTQPSSGVDSAVGTLPATSPQSTSVQAKGTNKLRKPKLPEVQQATKAPESSDDSEDSSDSSSGSEEDGEGPQGAKSAHTLGPTPSRTETLVEETAAESSEDDVVAPSQSLLSGYMTPGLTPANSQASKATPKLDSSPSVSSTLAAKDDPDGKQEAKPQQAAGMLSPKTGGKEAASGTTPQKSRKPKKGAGNPQASTLALQSNITQCLLGQPWPLNEAQVQASVVKVLTELLEQERKKVVDTTKESSRKGWESRKRKLSGDQPAARTPRSKKKKKLGAGEGGEASVSPEKTSTTSKGKAKRDKASGDVKEKKGKGSLGSQGAKDEPEEELQKGMGTVEGGDQSNPKSKKEKKKSDKRKKDKEKKEKKKKAKKASTKDSESPSQKKKKKKKKTAEQTV	6	6
ZC3H18 (protein, UniProt Q86VM9 1-953, looked up) Zinc finger CCCH …: MDVAESPERDPHSPEDEEQPQGLSDDDILRDSGSDQDLDGAGVRASDLEDEESAARGPSQEEEDNHSDEEDRASEPKSQDQDSEVNELSRGPTSSPCEEEGDEGEEDRTSDLRDEASSVTRELDEHELDYDEEVPEEPAPAVQEDEAEKAGAEDDEEKGEGTPREEGKAGVQSVGEKESLEAAKEKKKEDDDGEIDDGEIDDDDLEEGEVKDPSDRKVRPRPTCRFFMKGNCTWGMNCRFIHPGVNDKGNYSLITKADPFPPNGAPPLGPHPLMPANPWGGPVVDEILPPPPPEPPTESAWERGLRHAKEVLKKATIRKEQEPDFEEKRFTVTIGEDEREFDKENEVFRDWNSRIPRDVRDTVLEPYADPYYDYEIERFWRGGQYENFRVQYTETEPYHNYRERERERERENRQRERERERERDRERERRQRERERERERERDKERQRRKEEWERERAKRDEKDRQHRDRDREKEREKEKGKPKPRSPQPPSRQAEPPKKEAATTGPQVKRADEWKDPWRRSKSPKKKLGVSVSPSRARRRRKTSASSASASNSSRSSSRSSSYSGSGSSRSRSRSSSYSSYSSRSSRHSSFSGSRSRSRSFSSSPSPSPTPSPHRPSIRTKGEPAPPPGKAGEKSVKKPAPPPAPPQATKTTAPVPEPTKPGDPREARRKERPARTPPRRRTLSGSGSGSGSSYSGSSSRSRSLSVSSVSSVSSATSSSSSAHSVDSEDMYADLASPVSSASSRSPAPAQTRKEKGKSKKEDGVKEEKRKRDSSTQPPKSAKPPAGGKSSQQPSTPQQAPPGQPQQGTFVAHKEIKLTLLNKAADKGSRKRYEPSDKDRQSPPPAKRPNTSPDRGSRDRKSGGRLGSPKPERQRGQNSKAPAAPADRKRQLSPQSKSSSKVTSVPGKASDPGAASTKSGKASTLSRREELLKQLKAVEDAIARKRAKIPGKA	6	6
PPAN (protein, UniProt Q9NQ55 1-473, looked up) Suppressor of SWI4 1 homolog: MGQSGRSRHQKRARAQAQLRNLEAYAANPHSFVFTRGCTGRNIRQLSLDVRRVMEPLTASRLQVRKKNSLKDCVAVAGPLGVTHFLILSKTETNVYFKLMRLPGGPTLTFQVKKYSLVRDVVSSLRRHRMHEQQFAHPPLLVLNSFGPHGMHVKLMATMFQNLFPSINVHKVNLNTIKRCLLIDYNPDSQELDFRHYSIKVVPVGASRGMKKLLQEKFPNMSRLQDISELLATGAGLSESEAEPDGDHNITELPQAVAGRGNMRAQQSAVRLTEIGPRMTLQLIKVQEGVGEGKVMFHSFVSKTEEELQAILEAKEKKLRLKAQRQAQQAQNVQRKQEQREAHRKKSLEGMKKARVGGSDEEASGIPSRTASLELGEDDDEQEDDDIEYFCQAVGEAPSEDLFPEAKQKRLAKSPGRKRKRWEMDRGRGRLCDQKFPKTKDKSQGAQARRGPRGASRDGGRGRGRGRPGKRVA	6	6
